# From US20030171347A1, “Sigma receptor antagonists having anti-cocaine properties and uses thereof” (priority 1998, published 2003)
# Molecular target: T1, σ2 sites (Rattus norvegicus, UniProt Q5U3Y7)
# T1 construct: Crude P2 membranes were prepared from guinea pig brain, rat brain, or rat liver; from tissue; host or cells: rat liver (crude P2 membranes)
# T1 sequence (Q5U3Y7 1-176): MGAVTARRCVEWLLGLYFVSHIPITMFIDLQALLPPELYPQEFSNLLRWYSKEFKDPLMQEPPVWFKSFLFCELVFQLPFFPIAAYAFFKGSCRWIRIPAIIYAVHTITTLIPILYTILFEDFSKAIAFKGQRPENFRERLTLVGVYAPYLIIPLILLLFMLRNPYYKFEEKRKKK
# Test: σ2 receptor competition binding
"Ki (Table 5, dopamine transporter ligands) [nM]",SMILES,"Ki (Table 1, [3H]DTG plus dextrallorphan, rat liver, mean±SEM, minimum of two independent assays) [nM]"
–,"OC(CCCN1CCC(O)(c2ccc(Cl)cc2)CC1)c1ccc(F)cc1 (centres unmarked) [Reduced haloperidol, reference compound]",32 ± 4
31 ± 4,"CN1[C@@H]2CC[C@H]1C[C@@H](OC(c1ccccc1)c1ccccc1)C2 [Benztropine, reference compound]",–
